We go through 5 molecules from PubChem BioAssay AID212 (DTP/NCI, 2004).

SMILES strings stand for the structures. The list does not hold the whole screen: its compounds were picked by chemical class. Not every dose and run of a compound is shown. T/C gives the treated animals as a percentage of the vehicle group. Schedule codes are those of the source, taken here to give the interval after Q, in days (D) or hours (H), and the number of doses after X. Some T/C values are followed by the survivors on the day toxicity was checked; where neither a count nor a note follows, no animal had died by that day. Some doses were run more than once; the values are given in rising order. Some doses have a count of surviving animals in place of a T/C: the source holds a T/C of zero for them, seemingly a mark for toxic or unscored doses. Counts of survivors are from the toxicity check, whose day is not always given; animals may have died later. Some complexes appear as separate parts, the way the source draws them; their charges need not add up.

This test deals with BDF1 mice, colon carcinoma 38 sc, T/C %. The test is described as follows: NCI In Vivo Anticancer Drug Screen. Data for tumor model Colon Carcinoma 38 (subcutaneous) in B6D2F1 (BDF1) mice. The settings on record: T/C endpoint: median tumor weight (est.), schedule: Q07DX002 (ip), higher T/C = larger tumour; for T/C: evaluated on day 20. As to the method:
The antitumor activity of compounds was measured in mice bearing transplantable tumors. Survival or tumor size were measured and the results are expressed as the measurement made in the treated group (T) divided by the measurement made in the vehicle treated control group (C). The tumor model used in this assay is Colon Carcinoma 38 (subcutaneous) in B6D2F1 (BDF1) mice

The mark [1] stands for this setting: dose: 25.0 mg/kg/injection, vehicle: Klucel (hydroxypropylcellulose) (HPC).
Setting [2] is: dose: 50.0 mg/kg/injection, vehicle: Klucel (hydroxypropylcellulose) (HPC).
The mark [3] stands for this setting: dose: 100.0 mg/kg/injection, vehicle: Klucel (hydroxypropylcellulose) (HPC).
The mark [4] stands for this setting: dose: 200.0 mg/kg/injection, vehicle: Klucel (hydroxypropylcellulose) (HPC).
[5] abbreviates: dose: 400.0 mg/kg/injection, vehicle: Klucel (hydroxypropylcellulose) (HPC).
The mark [6] stands for this setting: dose: 100.0 mg/kg/injection, vehicle: saline with Tween-80.

`CCCNC(=O)c1ccc(N(CCCl)CCCl)cc1`: the T/C was 79 % of control under setting [1]; 75 [9 of 10 alive on day 20] and 171 % of control under setting [2]; 99 and 175 % of control under setting [3]; 66 and 136 % of control [9 of 10 alive] under setting [4]. In addition, the survivor count under setting [5] is reported as 0 of 10 on day 20.

Regarding `C[As](C)SC1OC(CO)C(O)C(O)C1O` (stereo not given), the T/C runs as follows: (dose: 6.25 mg/kg/injection, vehicle: saline) 70 % of control; (dose: 12.5 mg/kg/injection, vehicle: saline) 72 and 88 % of control; (dose: 25.0 mg/kg/injection, vehicle: saline) 65 [9 of 10 alive on day 20] and 95 % of control; (dose: 50.0 mg/kg/injection, vehicle: saline) 54 and 81 % of control; (dose: 100.0 mg/kg/injection, vehicle: saline) 80 and 99 % of control [9 of 10 alive on day 20]. In addition, where the note is “dose: 200.0 mg/kg/injection, vehicle: saline”, the survivor count is 0 of 10 on day 20 and 1 of 10 on day 20.

On to `ClP1(Cl)=NP(Cl)(Cl)=NP(Cl)(Cl)=NP(Cl)(Cl)=N1`, for which the T/C by setting is: (dose: 12.5 mg/kg/injection, vehicle: Klucel (hydroxypropylcellulose) (HPC)) 117 and 147 % of control; under setting [1], 88 and 107 % of control; under setting [2], 92 and 119 % of control; under setting [3], 98 and 129 % of control; under setting [4], 85 and 114 % of control; under setting [5], 92 [9 of 10 alive on day 20] and 99 % of control.

On to `Nc1cc([As]=O)ccc1O` (stereo not given), for which the T/C (dose: 6.25 mg/kg/injection, vehicle: saline with Tween-80) is 59 and 84 % of control; the T/C (dose: 12.5 mg/kg/injection, vehicle: saline with Tween-80) is 87 [9 of 10 alive on day 20] and 143 % of control; the T/C (dose: 25.0 mg/kg/injection, vehicle: saline with Tween-80) is 50 and 115 % of control; the T/C (dose: 50.0 mg/kg/injection, vehicle: saline with Tween-80) is 93 [8 of 10 alive on day 20] and 94 % of control; the T/C under setting [6] was 84 % of control. In addition, the survivor count is, setting by setting: under setting [6], 2 of 10 on day 20; (dose: 200.0 mg/kg/injection, vehicle: saline with Tween-80) 0 of 10 on day 20.

For `[Au].[C-]#N.[C-]#N`, the T/C is, setting by setting: (dose: 0.62 mg/kg/injection, vehicle: saline) 79 % of control; (dose: 1.25 mg/kg/injection, vehicle: saline) 75 % of control; (dose: 2.5 mg/kg/injection, vehicle: saline) 78 % of control; (dose: 5.0 mg/kg/injection, vehicle: saline) 106 % of control; (dose: 10.0 mg/kg/injection, vehicle: saline) 74 % of control. Besides, under “dose: 20.0 mg/kg/injection, vehicle: saline”, the survivor count was 0 of 10 on day 20.
